Experimental data published in article PMC11374660, “The novel family of Warbicin® compounds inhibits glucose uptake both in yeast and human cells and restrains cancer cell proliferation” (Frontiers in Oncology, 2024).
No constants are given. Whether binding was seen depends on the method and setting. In cells and extracts the contact can be indirect. Some binding calls cover weakened binding; strength is not graded here. Where a sequence is shown, tags or fusion partners need not be part of it.

B1: Hxt7-HA (HA-labeled yeast Hxt7 glucose carrier) (protein, UniProt P39004 1-570)
chain: MSQDAAIAEQTPVEHLSAVDSASHSVLSTPSNKAERDEIKAYGEGEEHEPVVEIPKRPASAYVTVSIMCIMIAFGGFVFGWDTGTISGFINQTDFIRRFGMKHKDGTNYLSKVRTGLIVSIFNIGCAIGGIILSKLGDMYGRKVGLIVVVVIYIIGIIIQIASINKWYQYFIGRIISGLGVGGIAVLSPMLISEVSPKHLRGTLVSCYQLMITAGIFLGYCTNFGTKNYSNSVQWRVPLGLCFAWALFMIGGMTFVPESPRYLAEVGKIEEAKRSIAVSNKVAVDDPSVLAEVEAVLAGVEAEKLAGNASWGELFSSKTKVLQRLIMGAMIQSLQQLTGDNYFFYYGTTIFKAVGLSDSFETSIVLGIVNFASTFVGIYVVERYGRRTCLLWGAASMTACMVVYASVGVTRLWPNGQDQPSSKGAGNCMIVFACFYIFCFATTWAPIPYVVVSETFPLRVKSKAMSIATAANWLWGFLIGFFTPFITGAINFYYGYVFMGCLVFMFFYVLLVVPETKGLTLEEVNTMWEEGVLPWKSASWVPPSRRGANYDAEEMTHDDKPLYKRMFSTK
B2: Hxk2-CCitr (Hxk2 fused to the C-terminal part of Citrine) (enzyme, UniProt P04807 1-486)
chain: MVHLGPKKPQARKGSMADVPKELMQQIENFEKIFTVPTETLQAVTKHFISELEKGLSKKGGNIPMIPGWVMDFPTGKESGDFLAIDLGGTNLRVVLVKLGGDRTFDTTQSKYRLPDAMRTTQNPDELWEFIADSLKAFIDEQFPQGISEPIPLGFTFSFPASQNKINEGILQRWTKGFDIPNIENHDVVPMLQKQITKRNIPIEVVALINDTTGTLVASYYTDPETKMGVIFGTGVNGAYYDVCSDIEKLQGKLSDDIPPSAPMAINCEYGSFDNEHVVLPRTKYDITIDEESPRPGQQTFEKMSSGYYLGEILRLALMDMYKQGFIFKNQDLSKFDKPFVMDTSYPARIEEDPFENLEDTDDLFQNEFGINTTVQERKLIRRLSELIGARAARLSVCGIAAICQKRGYKTGHIAADGSVYNRYPGFKEKAANALKDIYGWTQTSLDDYPIKIVPAEDGSGAGAAVIAALAQKRIAEGKSVGIIGA
B3: Hxk1-CCitr (Hxk1 fused to the C-terminal part of Citrine) (enzyme, UniProt P04806 1-485)
chain: MVHLGPKKPQARKGSMADVPKELMDEIHQLEDMFTVDSETLRKVVKHFIDELNKGLTKKGGNIPMIPGWVMEFPTGKESGNYLAIDLGGTNLRVVLVKLSGNHTFDTTQSKYKLPHDMRTTKHQEELWSFIADSLKDFMVEQELLNTKDTLPLGFTFSYPASQNKINEGILQRWTKGFDIPNVEGHDVVPLLQNEISKRELPIEIVALINDTVGTLIASYYTDPETKMGVIFGTGVNGAFYDVVSDIEKLEGKLADDIPSNSPMAINCEYGSFDNEHLVLPRTKYDVAVDEQSPRPGQQAFEKMTSGYYLGELLRLVLLELNEKGLMLKDQDLSKLKQPYIMDTSYPARIEDDPFENLEDTDDIFQKDFGVKTTLPERKLIRRLCELIGTRAARLAVCGIAAICQKRGYKTGHIAADGSVYNKYPGFKEAAAKGLRDIYGWTGDASKDPITIVPAEDGSGAGAAVIAALSEKRIAEGKSLGIIGA
B4: Glk1-CCitr (glucokinase Glk1 fused to the C-terminal part of Citrine) (enzyme, UniProt P17709 1-500)
chain: MSFDDLHKATERAVIQAVDQICDDFEVTPEKLDELTAYFIEQMEKGLAPPKEGHTLASDKGLPMIPAFVTGSPNGTERGVLLAADLGGTNFRICSVNLHGDHTFSMEQMKSKIPDDLLDDENVTSDDLFGFLARRTLAFMKKYHPDELAKGKDAKPMKLGFTFSYPVDQTSLNSGTLIRWTKGFRIADTVGKDVVQLYQEQLSAQGMPMIKVVALTNDTVGTYLSHCYTSDNTDSMTSGEISEPVIGCIFGTGTNGCYMEEINKITKLPQELRDKLIKEGKTHMIINVEWGSFDNELKHLPTTKYDVVIDQKLSTNPGFHLFEKRVSGMFLGEVLRNILVDLHSQGLLLQQYRSKEQLPRHLTTPFQLSSEVLSHIEIDDSTGLRETELSLLQSLRLPTTPTERVQIQKLVRAISRRSAYLAAVPLAAILIKTNALNKRYHGEVEIGCDGSVVEYYPGFRSMLRHALALSPLGAEGERKVHLKIAKDGSGVGAALCALVA

How the values were obtained:
[1] = target: T1, GST-Hxk2 (GST-labeled yeast hexokinase Hxk2) (S. cerevisiae) (UniProt P04807); assay: pull-down; GST-Hxk2 on Glutathione Sepharose 4B beads (25 µL) incubated with about 1 mg yeast protein extract overnight at 4°C; lysis buffer 50 mM Tris-HCl pH 7.5, 150 mM NaCl, 5% glycerol, 1 mM EDTA, 2.5 mM MgCl2, 1% Triton X-100; three washes; Hxt7-HA detected by anti-HA western blot; only the target purified
T1 sequence: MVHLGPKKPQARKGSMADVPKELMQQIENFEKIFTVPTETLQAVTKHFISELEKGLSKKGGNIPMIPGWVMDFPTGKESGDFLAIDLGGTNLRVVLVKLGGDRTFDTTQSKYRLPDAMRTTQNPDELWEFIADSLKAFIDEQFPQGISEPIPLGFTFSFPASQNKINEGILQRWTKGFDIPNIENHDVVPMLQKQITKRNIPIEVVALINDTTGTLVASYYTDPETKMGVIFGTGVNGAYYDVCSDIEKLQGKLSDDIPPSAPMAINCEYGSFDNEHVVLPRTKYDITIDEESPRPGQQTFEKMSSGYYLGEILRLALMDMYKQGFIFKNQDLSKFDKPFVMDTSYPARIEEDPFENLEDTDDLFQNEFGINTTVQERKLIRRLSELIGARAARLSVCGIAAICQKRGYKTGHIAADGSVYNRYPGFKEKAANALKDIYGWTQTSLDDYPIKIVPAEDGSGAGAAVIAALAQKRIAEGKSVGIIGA

[2] = target: T2, Hxt7-NCitr (Hxt7 fused to the N-terminal part of Citrine) (S. cerevisiae) (UniProt P39004); assay: split reporter; BiFC with split Citrine halves (NCitr 1-154, CCitr 155-236) in living yeast cells, confocal fluorescence microscopy; cells (pre)grown on YP with 325 mM glycerol and 430 mM ethanol
T2 sequence: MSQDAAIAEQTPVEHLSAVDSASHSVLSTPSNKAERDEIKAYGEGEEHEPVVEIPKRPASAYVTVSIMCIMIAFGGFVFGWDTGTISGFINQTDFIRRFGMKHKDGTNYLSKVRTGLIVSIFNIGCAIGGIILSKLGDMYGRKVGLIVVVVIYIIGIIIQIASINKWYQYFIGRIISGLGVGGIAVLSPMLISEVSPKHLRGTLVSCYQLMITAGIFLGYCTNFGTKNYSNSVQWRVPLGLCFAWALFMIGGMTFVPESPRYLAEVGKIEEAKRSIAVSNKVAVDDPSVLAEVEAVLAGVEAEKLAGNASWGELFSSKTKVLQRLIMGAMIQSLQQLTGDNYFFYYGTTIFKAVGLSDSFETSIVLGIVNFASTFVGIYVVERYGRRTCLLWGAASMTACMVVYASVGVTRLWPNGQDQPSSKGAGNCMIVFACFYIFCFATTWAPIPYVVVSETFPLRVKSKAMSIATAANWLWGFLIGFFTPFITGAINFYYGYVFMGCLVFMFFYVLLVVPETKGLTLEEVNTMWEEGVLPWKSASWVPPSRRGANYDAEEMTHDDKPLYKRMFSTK

Binder	binding [1]	binding [2]
B1	binds	
B2		binds
B3		binds
B4		binds
